Measurements taken from patent US20220119531A1.
Where a chain is given by its changes, count along the chain named. These are yes or no findings as the source states them, for the method shown. Some entries that bind do so weakly or less than the wild type. Values belong to the binder of their own block, whether it stands above or below them.

Chains of the proteins cited; added tags and fusions are not shown. Lines headed by an entry give the natural chain unless they say otherwise; changes in a name come on top. A line that says so, or that is headed by a name, gives the form on record, which may keep a tag or linker.
UniProt Q9NZQ7: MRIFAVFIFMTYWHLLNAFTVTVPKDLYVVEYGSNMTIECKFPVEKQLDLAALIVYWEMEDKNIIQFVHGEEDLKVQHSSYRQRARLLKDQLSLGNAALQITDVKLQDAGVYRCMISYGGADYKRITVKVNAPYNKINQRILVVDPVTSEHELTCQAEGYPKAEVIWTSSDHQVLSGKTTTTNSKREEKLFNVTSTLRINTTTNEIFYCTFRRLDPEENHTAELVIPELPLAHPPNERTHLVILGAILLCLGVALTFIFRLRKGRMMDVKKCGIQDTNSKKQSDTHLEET
rhesus PD-L1-Fc protein (F6PJN1, form named): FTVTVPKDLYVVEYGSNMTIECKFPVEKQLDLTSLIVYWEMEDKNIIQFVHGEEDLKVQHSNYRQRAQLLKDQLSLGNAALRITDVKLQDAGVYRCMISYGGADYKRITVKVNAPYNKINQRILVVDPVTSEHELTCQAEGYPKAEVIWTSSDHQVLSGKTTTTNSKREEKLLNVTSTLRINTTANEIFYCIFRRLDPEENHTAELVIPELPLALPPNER

Experiments:
[1] = biological target: human PD-L1-Fc protein (human) (UniProt Q9NZQ7); test: ELISA, plate coated with human PD-L1-Fc (FIG. 19)
[2] = biological target: human PD-L1-Fc protein (human) (UniProt Q9NZQ7); test: ELISA, plate coated with human PD-L1-Fc (2 µg/ml), OD450
[3] = biological target: human PD-L1 (form in the assay not stated) (human) (UniProt Q9NZQ7); test: Octet Red 96 affinity ranking
[4] = biological target: rhesus PD-L1-Fc protein (rhesus) (UniProt F6PJN1); test: ELISA (FIG. 8)
[5] = biological target: rhesus PD-L1-Fc protein (rhesus) (UniProt F6PJN1); test: ELISA, plate coated with rhesus PD-L1-Fc (FIG. 8)

- binding [1]: binds
- binding [2]: binds
B1: B1 (antibody, V domains shown)
VH: EVQLVESGGGLVQPGGSLRLSCAASGFTFSSYDMSWVRQAPGKSLEWVATISDAGGYIYYRDSVKGRFTISRDNAKNSLYLQMNSLRDEDTAVYICAREIFNRYALDYWGQGTTVTVSS
VL: DIQMTQSPSSLSASVGDRVTITCKASQDVTPAVAWYQQKPGKAPKLLIYSTSSRYTGVPSRFSGSGSGTDFTFTISSLQPEDIATYYCQQHYTTPLTFGQGTKLEIK

- binding [3]: binds
B2: Hu1210-8 (antibody, V domains shown)
VH: B1 VH with Q13K, S44G, A54G, R61S, D88A, I95Y, I100F, F101G, N102K
VL: B1 VL with A43S

- binding [4]: binds
- binding [5]: binds
B3: Hu1210-41 (antibody, V domains shown)
VH: B1 VH with R61S, I100F, F101G, N102K
VL: B1 VL
